Assay results as given in patent publication US6313092A, “Method for increasing the electrotransport flux of polypeptides” (ALZA Corporation, priority 1998, dated 2001).
Part of at least one peptide drawing is inferred or uncertain, most often the ends. Where a SMILES comes first, the peptide text is derived from it. The star is where a group is joined. hSer(lactone) = O=C1OCC[C@@H]1N*

Tests used:
[1] = Circular dichroism in varying trifluoroethanol (TFE) concentrations; type: physicochemical; settings: for [θ]222: pH 6.5 10 mM cacodylate, 20° C.; for amount of helicity (alpha helical): 30% (v/v) trifluoroethanol
PTH receptor = target: T1, PTH receptor (Rattus norvegicus, UniProt P25961); assay: PTH analog activity assay: stimulation of adenylate cyclase (cAMP by SPA) in UMR106 cells
T1 sequence (P25961 27-591): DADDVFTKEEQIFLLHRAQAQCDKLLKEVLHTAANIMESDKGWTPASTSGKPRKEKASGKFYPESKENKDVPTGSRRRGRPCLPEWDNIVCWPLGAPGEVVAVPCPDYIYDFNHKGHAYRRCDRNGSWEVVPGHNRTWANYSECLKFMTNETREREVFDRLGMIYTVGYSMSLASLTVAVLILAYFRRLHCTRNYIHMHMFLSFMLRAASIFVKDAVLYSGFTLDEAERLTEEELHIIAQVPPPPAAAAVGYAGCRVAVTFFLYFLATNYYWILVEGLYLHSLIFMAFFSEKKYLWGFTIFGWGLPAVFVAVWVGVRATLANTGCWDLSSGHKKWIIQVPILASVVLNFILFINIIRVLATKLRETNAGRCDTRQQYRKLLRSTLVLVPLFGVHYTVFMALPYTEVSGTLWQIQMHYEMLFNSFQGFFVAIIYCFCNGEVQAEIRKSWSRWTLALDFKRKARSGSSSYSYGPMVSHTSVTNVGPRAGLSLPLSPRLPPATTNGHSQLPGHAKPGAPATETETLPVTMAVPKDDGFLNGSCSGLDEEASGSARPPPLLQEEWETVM

Compound	[θ]222 ([1]; 0 % TFE)	[θ]222 ([1]; 10 % TFE)	[θ]222 ([1]; 20 % TFE)	amount of helicity (alpha helical) [1]	[θ]222 ([1]; 30 % TFE)	[θ]222 ([1]; 40 % TFE)	[θ]222 ([1]; 50 % TFE)	alpha-helical content ([1]; absence of the helix-inducing agent)	activity (ability to stimulate adenylate cyclase) (PTH receptor)
CC[C@H](C)[C@H](NC(=O)[C@H](CCC(=O)O)NC(=O)[C@H](CO)NC(=O)[C@@H](NC(=O)[C@@H](N)CO)C(C)C)C(=O)N[C@@H](CCC(N)=O)C(=O)N[C@@H](CC(C)C)C(=O)N[C@@H](CC(C)C)C(=O)N[C@@H](Cc1c[nH]cn1)C(=O)N[C@@H](CC(N)=O)C(=O)N[C@@H](CC(C)C)C(=O)NCC(=O)N[C@@H](CCCCN)C(=O)N[C@@H](Cc1c[nH]cn1)C(=O)N[C@@H](CCCNC(=N)N)C(=O)N[C@@H](CC(N)=O)C(=O)N[C@@H](CO)C(=O)N[C@@H](CC(C)C)C(=O)N[C@@H](CCCNC(=N)N)C(=O)N[C@@H](CCCNC(=N)N)C(=O)N[C@H](C(=O)N[C@@H](CCCNC(=N)N)C(=O)N[C@@H](Cc1c[nH]c2ccccc12)C(=O)N[C@@H](CC(C)C)C(=O)N[C@@H](CCCNC(=N)N)C(=O)N[C@@H](CCCCN)C(=O)N[C@@H](CCCCN)C(=O)N[C@@H](CC(C)C)C(=O)N[C@@H](CCCCN)C(=O)N[C@@H](CC(=O)O)C(=O)N[C@H](C(=O)N[C@@H](Cc1c[nH]cn1)C(=O)N[C@@H](CC(N)=O)C(=O)N[C@@H](Cc1ccc(O)cc1)C(=O)N[C@H]1CCOC1=O)C(C)C)C(C)C [PTH analog 1] (H-SVSEIQLLHNLGKHRNSLRRVRWLRKKLKDVHNY-{hSer(lactone)})	-4205	-9333	-23098	about 80%	-26334	-27580	-27705	–	–
CC[C@H](C)[C@H](NC(=O)[C@H](CCC(=O)O)NC(=O)[C@H](CO)NC(=O)[C@@H](NC(=O)[C@@H](N)CO)C(C)C)C(=O)N[C@@H](CCC(N)=O)C(=O)N[C@@H](CC(C)C)C(=O)N[C@@H](CC(C)C)C(=O)N[C@@H](Cc1c[nH]cn1)C(=O)N[C@@H](CC(N)=O)C(=O)N[C@@H](CO)C(=O)NCC(=O)N[C@@H](CCCCN)C(=O)N[C@@H](Cc1c[nH]cn1)C(=O)N[C@@H](CCCNC(=N)N)C(=O)N[C@@H](CC(N)=O)C(=O)N[C@@H](CO)C(=O)N[C@@H](CO)C(=O)N[C@@H](CCCNC(=N)N)C(=O)N[C@@H](CCCNC(=N)N)C(=O)N[C@@H](CO)C(=O)N[C@@H](CCCNC(=N)N)C(=O)N[C@@H](Cc1c[nH]c2ccccc12)C(=O)N[C@@H](CO)C(=O)N[C@@H](CCCNC(=N)N)C(=O)N[C@@H](CCCCN)C(=O)N[C@@H](CCCCN)C(=O)N[C@@H](CO)C(=O)N[C@@H](CCCCN)C(=O)N[C@@H](CC(=O)O)C(=O)N[C@H](C(=O)N[C@@H](Cc1c[nH]cn1)C(=O)N[C@@H](CC(N)=O)C(=O)N[C@@H](CO)C(=O)N[C@H]1CCOC1=O)C(C)C [PTH analog 2] (H-SVSEIQLLHNSGKHRNSSRRSRWSRKKSKDVHNS-{hSer(lactone)})	-2750	-4600	-9065	at most 30%	-12081	-14320	-15649	essentially devoid of helix	no measurable activity
